The nature of the data set: Boc solid-phase peptide synthesis; Boc-Tyr(Bzl)-Merrifield support (0.67 mmol/g; 1% of DVB; 200 - 400 mesh); benzhydrylamine supporting polymer also named. As to conditions: whole synthesis, scale of the general procedure 1.22 g of resin.

HELM strings list residues between dots; [ac] is acetyl, [am] amide, other brackets name non-standard units.

Regarding “PEPTIDE1{T.A.P.R.S.L.R.R.S.S.C.F.G.G.R.M.D.R.I.G.A.Q.S.G.L.G.C.N.S.F.R.Y}$PEPTIDE1,PEPTIDE1,11:R3-27:R3$$$V2.0”, the “final purity (method not given)” value is “more than 98%”.

The values are drawn from patent publication EP0349545 (dated 1993).
